# Assay results: PubChem BioAssay AID316 (DTP/NCI, 2004)
# The list shows only some results of the screen, not a fair sample: it is rich in T/C values a quarter to a half above the control, in often repeated tests (any T/C) and in doses without a T/C. Further doses and runs are listed elsewhere. T/C gives the treated animals as a percentage of the vehicle group. Some entries give survivors of the animals treated and no T/C: the source files T/C as zero there, which appears to mark a toxic dose or a test without result, not a measured value. Some doses without a T/C left all or most animals alive at the check, yet need not have been tolerated: survival well below the control is almost never listed, so the zero probably covers shortened survival too. Counts of survivors are from the toxicity check (mostly the fifth day) where no day follows; animals may have died later. Schedules are NCI's codes, taken here to give the interval after Q, in days (D) or hours (H), and the number of doses after X. For survival time, this PubChem deposit counts one and a half times the control or more as active, and values a quarter to a half above the control carry no call in these data; other NCI protocols may use other cut-offs.
# Test system: P1534 leukemia ip, CD2F1 mice, survival T/C
# Assay: NCI In Vivo Anticancer Drug Screen. Data for tumor model P1534 Leukemia (intraperitoneal) in CD2F1 (CDF1) mice
# Details: T/C endpoint: mean survival time, higher T/C = longer survival
# Protocol: The antitumor activity of compounds was measured in mice bearing transplantable tumors. Survival or tumor size were measured and the results are expressed as the measurement made in the treated group (T) divided by the measurement made in the vehicle treated control group (C). The tumor model used in this assay is P1534 Leukemia (intraperitoneal) in CD2F1 (CDF1) mice
structure (smiles),measurement,setting,value
COC1=C(N)C(=O)c2nc(-c3nc(C(=O)O)c(C)c(-c4ccc(OC)c(OC)c4O)c3N)ccc2C1=O,survivor count,"dose: 0.2 mg/kg/injection, schedule: Q01DX010 (ip), vehicle: saline",6 of 6
CCN(CC)CCNc1ccc(C)c2sc3ccccc3c(=O)c12,survivor count,"dose: 160.0 mg/kg/injection, schedule: Q01DX010 (ip), vehicle: saline",0 of 6
C[n+]1c2ccccc2nc2c(N)cc(N)cc21,T/C,"dose: 8.0 mg/kg/injection, schedule: Q01DX010 (ip), vehicle: saline",132 % of control
same,T/C,"dose: 12.0 mg/kg/injection, schedule: Q01DX010 (ip), vehicle: saline",128 % of control
same,T/C,"dose: 18.0 mg/kg/injection, schedule: Q01DX010 (ip), vehicle: saline",125 % of control
CC(=O)Nc1ccc(/C=N/Nc2ccc([N+](=O)[O-])cn2)cc1,survivor count,"dose: 500.0 mg/kg/injection, schedule: Q01DX010 (ip), vehicle: saline",6 of 6
COc1cc2c3c(c4ccc(O)cc4c2cc1OC)[C@@H](O)[C@@H]1CCCN1C3,T/C,"dose: 10.0 mg/kg/injection, schedule: Q01DX009 (ip), vehicle: water",134 % of control
same,survivor count,"dose: 25.0 mg/kg/injection, schedule: Q01DX010 (ip), vehicle: water",1 of 6
same,survivor count,"dose: 35.0 mg/kg/injection, schedule: Q01DX010 (ip), vehicle: water",3 of 6
Nc1nc(=S)c2ncn(C3OC(CO)C(O)C3O)c2[nH]1 (stereo not drawn),survivor count,"dose: 2.5 mg/kg/injection, schedule: Q01DX010 (ip), vehicle: saline",5 of 6
CC(/C=N/N=C(N)N)=N\NC(N)=S,survivor count,"dose: 400.0 mg/kg/injection, schedule: Q01DX010 (ip), vehicle: saline",3 of 6
O=C(NCCCC(NC(=O)OCc1ccccc1)C(=O)NCCCCCCNCCCCCCNC(=O)C(CCCNC(=O)OCc1ccccc1)NC(=O)OCc1ccccc1)OCc1ccccc1 (stereo not drawn),survivor count,"dose: 50.0 mg/kg/injection, schedule: Q01DX010 (ip), vehicle: saline",6 of 6
CC(=O)OC(C)(C)/C=C/C(=O)[C@](C)(O)[C@H]1[C@H](O)C[C@@]2(C)[C@@H]3CC=C4[C@@H](C[C@H](O)C(=O)C4(C)C)[C@]3(C)C(=O)C[C@]12C,survivor count,"dose: 0.57 mg/kg/injection, schedule: Q01DX010 (ip), vehicle: saline",6 of 6
